Test results taken from paper PMC5318909.
Results are given in words; binding and its absence hold for the method and conditions named. Some results given as binding are weak or reduced against the parent protein; the word gives no strength.

Amino acid sequences for entries named in this document (tags omitted). Residues count along the entry.
UniProt P05067, residues 672-713: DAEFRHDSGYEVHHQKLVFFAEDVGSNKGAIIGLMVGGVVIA
UniProt P10997, residues 34-70: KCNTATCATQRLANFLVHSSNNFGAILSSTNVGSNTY

How the values were obtained:
Aβ42 synthetic peptide [1] = molecular target: Aβ42 synthetic peptide (UniProt P05067); test: SEC + ELISA; mtNUCB1 and Aβ42 co-incubated at 37 °C for 24 h; Superdex200 26/60 in 20 mM sodium phosphate pH 8.0, 150 mM NaCl; main peak collected and probed by indirect ELISA for mtNUCB1 and Aβ42; both purified
[2] = molecular target: human islet amyloid polypeptide (hIAPP) (human) (UniProt P10997); test: SEC; mtNUCB1 co-incubated with the amyloid protein at 37 °C (hIAPP 3 h stirred; α-synuclein and V30M 24 h shaken); Superdex200 26/60, main peak collected and imaged by AFM; both purified
[3] = molecular target: Ca2+-free mutant variant of soluble nucleobindin 1 (mtNUCB1) (human) (UniProt Q02818); test: gel analysis; data not shown; no conditions told; both purified
Aβ42 synthetic peptide [4] = molecular target: Aβ42 synthetic peptide (UniProt P05067); test: double immunogold electron microscopy; 10 μM Aβ42 + 10 μM mtNUCB1 incubated at 37 °C for 24 h, or SEC-purified mtNUCB1-Aβ42 protofibrils; stained with mouse anti-Aβ 6E10 (6-nm gold) and rabbit anti-NUCB1 (12-nm gold); both purified
Aβ42 synthetic peptide [5] = molecular target: Aβ42 synthetic peptide (UniProt P05067); test: immunogold electron microscopy; data not shown; sample with a mtNUCB1:Aβ42 ratio of 1:4, Aβ42 fibrils; both purified

binding (Aβ42 synthetic peptide [1]): binds
binding [2]: binds
binding [3]: binds
binding (Aβ42 synthetic peptide [4]): binds
binding (Aβ42 synthetic peptide [5]): binds
B1: Ca2+-free mutant variant of soluble nucleobindin 1 (mtNUCB1) (protein, UniProt Q02818 31-461)
chain: RGAPNKEETPATESPDTGLYYHRYLQEVIDVLETDGHFREKLQAANAEDIKSGKLSRELDFVSHHVRTKLDELKRQEVSRLRMLLKAKMDAEQDPNVQVDHLNLLKQFEHLDPQNQHTFEARDLELLIQTATRDLAQYDAAHHEEFKRYEMLKEHERRRYLESLGEEQRKEAERKLEEQQRRHREHPKVNVPGSQAQLKEVWEELDGLDPNRFNPKTFFILHKINSDGVLDEQALEALFTKELEKVYDPKNEEDDMREMEEERLRMREHVMKNVKTNQDRLVTLEAFLASTQRKEFGDTGEGWETVEMHPAYTEEELRRFEEELAAREAELNAKAQRLSQETEALGRSQGRLEAQKRELQQAVLHMEQRKQQQQQQQGHKAPAAHPEGQLKFHPDTDDVPVPAPAGDQKEVDTSEKKLLERLPEVEVPQHL
